According to the supplement of paper PMC7824004:
The other results are listed elsewhere or left out. The data scatter; read single values as rough.

These compounds were tested on Candida albicans SN425 (assay: biofilm OD600 B-score; higher = more biofilm (less inhibition)). Conditions: 10 µM; assay detail: High-throughput adherence inhibition optical density biofilm assay with C. albicans SN425 in RPMI-1640/MOPS pH 7.0, 384-well plates. ….
Procedure: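 High-throughput adherence inhibition optical density biofilm assay with C. albicans SN425 in RPMI-1640/MOPS pH 7.0, 384-well plates. Compound (10 µM) was present only during the 90 min adherence step, then washed out, and the biofilm grew 24 h without compound. Biofilm was read as OD600 after removing the media. Scores are the difference from the mean in standard deviations and the plate B-score.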
With `Brc1ccc(OCCCn2ccnc2)cc1` the “biofilm OD600 B-score” value was 1.8.
For `CCCSc1nc(C)cc(COC)c1C#N`, the “biofilm OD600 B-score” value was 0.917.
With `Cc1ccccc1CSc1nnc(NC(=O)Nc2ccccc2F)s1` the “biofilm OD600 B-score” value was -0.0254.
In the case of `Cc1cc(C)nc(SCCN2CCCC2)n1`, the “biofilm OD600 B-score” value is reported as -0.0262.
For `CCN(CC)C(=O)C1CCCN(Cc2cccc(C)c2)C1` (stereo not given), the “biofilm OD600 B-score” value was -0.816.
With `O=C(Nc1ccc2c(c1)OCO2)NC1CCCCC1` the “biofilm OD600 B-score” value was -0.941.
With `CCc1cccc(OCCN2CCCC2)c1` the “biofilm OD600 B-score” value was -0.0182.
`O=C(Nc1cccnc1)c1ccccc1F` was tested, and the “biofilm OD600 B-score” value was 0.476.
In the case of `COc1ccc(NC(=O)Nc2cccc3cccnc23)cc1`, the “biofilm OD600 B-score” value is reported as 0.787.
With `Cc1ccc(Cl)c2c1NC(=O)C2=O` the “biofilm OD600 B-score” value was 1.65.
`Cc1ccc(S(=O)(=O)NC(C)(C)C)cc1` was tested, and the “biofilm OD600 B-score” value was 2.12.
For `CCC(C(=O)NCc1ccco1)c1ccccc1` (stereo not given), the “biofilm OD600 B-score” value was -1.32.
In the case of `Cc1cccc(C)c1-n1c(C)n[nH]c1=O`, the “biofilm OD600 B-score” value is reported as -2.28.
With `Cc1ccc(OCC(=O)Nc2nc(C)cc(C)n2)cc1` the “biofilm OD600 B-score” value was 1.44.
For `COc1cccc(N(CC(=O)N2CCOCC2)S(C)(=O)=O)c1`, the “biofilm OD600 B-score” value was -3.94.
`COCC(C)NC(=O)N1CCOCC1` (stereo not given) was tested, and the “biofilm OD600 B-score” value was 0.486.
With `Cc1ccc(NC(=O)c2cc(N)ccc2N2CCOCC2)cc1` the “biofilm OD600 B-score” value was -1.36.
`COc1ccc(S(=O)(=O)NCCC2=CCCCC2)cc1OC` was tested, and the “biofilm OD600 B-score” value was 0.00596.
For `N#CCCNCCN1CCCC1=O`, the “biofilm OD600 B-score” value was 0.792.
In the case of `COc1ccc(N2CCN(C(=O)COCC(=O)O)CC2)cc1`, the “biofilm OD600 B-score” value is reported as 0.0198.
With `Cc1cc(C)n(C(=O)c2c(-c3ccccc3)noc2C)n1` the “biofilm OD600 B-score” value was 2.77.
`CCOc1ccc(C(=O)NCCCn2ccnc2)cc1` was tested, and the “biofilm OD600 B-score” value was 1.79.
`CCN1CCN(CC(O)COc2ccc3c(c2)CCC3)CC1` (stereo not given) was tested, and the “biofilm OD600 B-score” value was -1.53.
For `C=CCn1c(SCCC)nc(O)cc1=O`, the “biofilm OD600 B-score” value was -0.308.
For `O=S(=O)(Nc1ccc(F)cc1)c1ccccc1`, the “biofilm OD600 B-score” value was -0.392.
With `Cc1cc(NC(=O)c2sc3cc(F)ccc3c2Cl)no1` the “biofilm OD600 B-score” value was 0.761.
With `CC(=O)NS(=O)(=O)c1ccc(NC(=O)CCC2CCCC2)cc1` the “biofilm OD600 B-score” value was 5.78.
In the case of `CCc1ccccc1NS(=O)(=O)c1ccc(NC(C)=O)cc1`, the “biofilm OD600 B-score” value is reported as -3.36.
In the case of `CC(=O)Nc1ccc(CN2CCN(c3ccc(Cl)cc3)CC2)cc1`, the “biofilm OD600 B-score” value is reported as -0.752.
`NC(=O)CSCc1ccccc1Cl` was tested, and the “biofilm OD600 B-score” value was -2.62.
In the case of `O=C(Cc1ccccc1)Nc1cccc(N2C(=O)CCC2=O)c1`, the “biofilm OD600 B-score” value is reported as -3.46.
For `N#CCC(=O)c1ccc(N)cc1`, the “biofilm OD600 B-score” value was 1.62.
With `NS(=O)(=O)c1ccc(CNC(=O)COc2ccc(Cl)cc2)cc1` the “biofilm OD600 B-score” value was -1.54.
In the case of `NNc1nc(Nc2ccccc2)nc(N2CCCC2)n1`, the “biofilm OD600 B-score” value is reported as -2.36.
With `Cc1ccc(C(=O)N2CCC(C(=O)NCc3ccco3)CC2)cc1` the “biofilm OD600 B-score” value was 1.13.
For `Cc1cc(NC(=O)C2CC3CCC2C3)no1` (stereo not given), the “biofilm OD600 B-score” value was 3.21.
For `OC(COCCC12CC3CC(CC(C3)C1)C2)CN1CCOCC1` (stereo not given), the “biofilm OD600 B-score” value was -2.12.
For `CCOc1ccc(CN(C)CCN(C)C)cc1`, the “biofilm OD600 B-score” value was -3.7.
`O=C(Cc1ncc(-c2ccccc2)cn1)c1ccccc1` was tested, and the “biofilm OD600 B-score” value was 1.75.
In the case of `OC1CCN(Cc2cccc(Oc3ccccc3)c2)CC1`, the “biofilm OD600 B-score” value is reported as -0.299.
